The other results are listed elsewhere or left out. Most entries show no effect beyond the scatter of the controls.

The chains behind the UniProt entries cited, without tags or fusion partners. Where a name states a change or a piece, a line headed by the entry shows the natural chain unless it says otherwise.
UniProt Q8C7G5: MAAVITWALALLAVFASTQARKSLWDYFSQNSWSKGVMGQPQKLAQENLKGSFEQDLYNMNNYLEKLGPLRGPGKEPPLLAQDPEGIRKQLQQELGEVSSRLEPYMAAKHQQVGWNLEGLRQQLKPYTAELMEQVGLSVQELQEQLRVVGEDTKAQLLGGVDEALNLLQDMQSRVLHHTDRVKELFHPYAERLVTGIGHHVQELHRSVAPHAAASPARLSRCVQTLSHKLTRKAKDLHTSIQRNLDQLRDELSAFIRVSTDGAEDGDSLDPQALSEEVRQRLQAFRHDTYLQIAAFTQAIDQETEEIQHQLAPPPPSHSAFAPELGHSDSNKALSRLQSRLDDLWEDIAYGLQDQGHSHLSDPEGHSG
UniProt Q8C5S7: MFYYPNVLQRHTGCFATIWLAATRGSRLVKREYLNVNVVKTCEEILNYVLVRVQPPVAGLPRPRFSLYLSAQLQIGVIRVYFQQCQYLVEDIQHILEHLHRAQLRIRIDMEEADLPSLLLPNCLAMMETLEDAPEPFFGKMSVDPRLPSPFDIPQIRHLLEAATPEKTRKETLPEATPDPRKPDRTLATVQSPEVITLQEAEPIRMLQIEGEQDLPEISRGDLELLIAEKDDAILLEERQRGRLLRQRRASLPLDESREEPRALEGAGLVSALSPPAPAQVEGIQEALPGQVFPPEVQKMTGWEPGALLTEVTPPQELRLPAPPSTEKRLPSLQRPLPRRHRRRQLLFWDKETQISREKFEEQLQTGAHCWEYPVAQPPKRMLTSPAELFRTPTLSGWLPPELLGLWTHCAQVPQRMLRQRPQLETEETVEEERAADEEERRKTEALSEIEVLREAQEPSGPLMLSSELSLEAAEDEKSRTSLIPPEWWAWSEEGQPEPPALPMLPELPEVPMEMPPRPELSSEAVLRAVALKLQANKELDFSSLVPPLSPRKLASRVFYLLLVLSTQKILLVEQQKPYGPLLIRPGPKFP
UniProt Q8C1Q6: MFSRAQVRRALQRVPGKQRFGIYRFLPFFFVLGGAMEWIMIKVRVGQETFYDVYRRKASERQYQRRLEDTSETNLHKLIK
UniProt Q8BXN9: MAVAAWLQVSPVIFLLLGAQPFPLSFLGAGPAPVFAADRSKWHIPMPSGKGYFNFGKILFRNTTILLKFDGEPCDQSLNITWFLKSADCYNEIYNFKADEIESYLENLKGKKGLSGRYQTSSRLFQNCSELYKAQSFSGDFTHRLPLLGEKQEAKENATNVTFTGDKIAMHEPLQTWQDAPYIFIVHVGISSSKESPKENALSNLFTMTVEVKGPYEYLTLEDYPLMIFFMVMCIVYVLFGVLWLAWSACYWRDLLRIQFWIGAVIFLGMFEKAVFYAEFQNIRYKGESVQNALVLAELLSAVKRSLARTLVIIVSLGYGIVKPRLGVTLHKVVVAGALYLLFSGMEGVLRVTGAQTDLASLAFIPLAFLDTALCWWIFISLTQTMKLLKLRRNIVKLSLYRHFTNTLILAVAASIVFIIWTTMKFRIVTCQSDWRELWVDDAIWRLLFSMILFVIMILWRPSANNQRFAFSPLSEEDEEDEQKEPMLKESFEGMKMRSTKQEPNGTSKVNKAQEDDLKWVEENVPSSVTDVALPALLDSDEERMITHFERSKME
UniProt Q8BZN6: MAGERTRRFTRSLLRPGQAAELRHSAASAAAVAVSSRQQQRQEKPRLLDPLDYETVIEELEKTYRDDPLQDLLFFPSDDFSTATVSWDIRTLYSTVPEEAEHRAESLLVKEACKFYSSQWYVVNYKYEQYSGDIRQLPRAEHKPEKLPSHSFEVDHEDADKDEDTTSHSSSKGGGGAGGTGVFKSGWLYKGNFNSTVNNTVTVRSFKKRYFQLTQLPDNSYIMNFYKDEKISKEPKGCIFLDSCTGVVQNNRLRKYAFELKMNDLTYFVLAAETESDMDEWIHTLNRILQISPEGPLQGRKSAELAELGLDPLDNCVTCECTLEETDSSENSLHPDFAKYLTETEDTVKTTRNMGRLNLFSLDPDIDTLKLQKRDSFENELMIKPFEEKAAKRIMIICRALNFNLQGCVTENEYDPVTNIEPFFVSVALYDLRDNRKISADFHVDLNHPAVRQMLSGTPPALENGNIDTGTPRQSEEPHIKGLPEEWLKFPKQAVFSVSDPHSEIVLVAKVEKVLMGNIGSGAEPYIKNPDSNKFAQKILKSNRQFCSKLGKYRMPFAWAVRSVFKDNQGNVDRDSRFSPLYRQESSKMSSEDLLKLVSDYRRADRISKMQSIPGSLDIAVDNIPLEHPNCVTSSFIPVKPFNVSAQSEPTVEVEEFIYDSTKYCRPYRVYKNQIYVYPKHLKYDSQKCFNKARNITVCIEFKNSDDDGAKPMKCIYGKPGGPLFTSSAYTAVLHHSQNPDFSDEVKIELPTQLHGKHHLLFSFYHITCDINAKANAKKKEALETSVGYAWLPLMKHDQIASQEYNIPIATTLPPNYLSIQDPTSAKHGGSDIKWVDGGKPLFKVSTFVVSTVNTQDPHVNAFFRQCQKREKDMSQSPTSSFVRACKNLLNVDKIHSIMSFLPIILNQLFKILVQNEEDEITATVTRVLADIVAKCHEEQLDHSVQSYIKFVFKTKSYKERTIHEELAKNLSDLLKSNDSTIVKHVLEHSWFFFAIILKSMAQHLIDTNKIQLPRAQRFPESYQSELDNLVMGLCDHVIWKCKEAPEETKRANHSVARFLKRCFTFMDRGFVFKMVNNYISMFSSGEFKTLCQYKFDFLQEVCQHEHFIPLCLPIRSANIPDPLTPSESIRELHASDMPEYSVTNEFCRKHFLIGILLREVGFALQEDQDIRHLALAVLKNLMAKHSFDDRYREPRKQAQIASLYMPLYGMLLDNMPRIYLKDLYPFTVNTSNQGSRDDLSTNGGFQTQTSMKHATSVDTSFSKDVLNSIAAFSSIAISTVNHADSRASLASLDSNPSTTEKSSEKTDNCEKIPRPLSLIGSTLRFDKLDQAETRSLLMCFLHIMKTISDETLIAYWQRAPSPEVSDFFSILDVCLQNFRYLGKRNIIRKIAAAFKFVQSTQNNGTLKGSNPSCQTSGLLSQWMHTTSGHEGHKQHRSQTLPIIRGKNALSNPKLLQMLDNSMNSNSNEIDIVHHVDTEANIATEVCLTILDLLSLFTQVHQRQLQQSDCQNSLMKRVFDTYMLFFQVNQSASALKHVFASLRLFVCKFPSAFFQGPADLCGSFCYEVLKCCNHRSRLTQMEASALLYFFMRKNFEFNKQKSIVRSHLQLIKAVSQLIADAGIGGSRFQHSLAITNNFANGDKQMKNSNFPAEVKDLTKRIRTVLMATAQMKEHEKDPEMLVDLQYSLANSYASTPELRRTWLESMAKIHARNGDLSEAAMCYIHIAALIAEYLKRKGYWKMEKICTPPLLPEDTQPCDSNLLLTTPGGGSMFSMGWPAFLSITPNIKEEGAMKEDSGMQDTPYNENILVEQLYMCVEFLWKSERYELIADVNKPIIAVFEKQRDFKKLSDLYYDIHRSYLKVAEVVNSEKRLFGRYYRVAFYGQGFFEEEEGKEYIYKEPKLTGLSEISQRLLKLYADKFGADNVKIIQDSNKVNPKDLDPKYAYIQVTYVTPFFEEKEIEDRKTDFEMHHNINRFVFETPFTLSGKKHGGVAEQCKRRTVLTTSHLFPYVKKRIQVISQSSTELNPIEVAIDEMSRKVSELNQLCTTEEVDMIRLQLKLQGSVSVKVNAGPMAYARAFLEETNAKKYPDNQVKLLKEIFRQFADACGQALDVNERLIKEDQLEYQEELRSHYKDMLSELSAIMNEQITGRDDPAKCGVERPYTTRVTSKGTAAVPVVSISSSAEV

Compound in the assay: CN[C@@H]1C[C@H]2O[C@@](C)([C@@H]1OC)n1c3ccccc3c3c4c(c5c6ccccc6n2c5c31)C(=O)NC4 [staurosporine]
The experiment in a line: log2 fold change of tryptic peptide abundance, ligand vs vehicle (limited proteolysis) (log2 ratio); higher = more trypsin-susceptible (destabilized). The settings on record: ligand concentration: 20 uM; sample: mouse liver crude lysate; replicate design: treated separately.
Turning to “UniProt Q8C7G5 (peptide sequence: ELFHPYAER, peptide start residue: 184)”, the log2 fold change was found to be 0.392. Take “UniProt Q8C5S7 (peptide sequence: AADEEERR, peptide start residue: 435)”: the log2 fold change was -0.165. To “UniProt Q8C1Q6 (peptide sequence: LEDTSETNLHK, peptide start residue: 67)” belongs -0.222; to “UniProt Q8BXN9 (peptide sequence: MITHFER, peptide start residue: 545)”, 0.119. On to “UniProt Q8BZN6 (peptide sequence: HLALAVLK, peptide start residue: 1173)”, for which the log2 fold change is -0.371.

The values above are taken from the supplement of paper PMC12819154, “High-throughput peptide-centric local stability assay extends protein–ligand identification to membrane proteins, tissues and bacteria” (Nature Structural & Molecular Biology, 2025).
